In publication PMC7723276 one finds binding data, which are given here for one substance.

By UniProt entry, the sequences of proteins in these tests, tags left out.
UniProt P25440: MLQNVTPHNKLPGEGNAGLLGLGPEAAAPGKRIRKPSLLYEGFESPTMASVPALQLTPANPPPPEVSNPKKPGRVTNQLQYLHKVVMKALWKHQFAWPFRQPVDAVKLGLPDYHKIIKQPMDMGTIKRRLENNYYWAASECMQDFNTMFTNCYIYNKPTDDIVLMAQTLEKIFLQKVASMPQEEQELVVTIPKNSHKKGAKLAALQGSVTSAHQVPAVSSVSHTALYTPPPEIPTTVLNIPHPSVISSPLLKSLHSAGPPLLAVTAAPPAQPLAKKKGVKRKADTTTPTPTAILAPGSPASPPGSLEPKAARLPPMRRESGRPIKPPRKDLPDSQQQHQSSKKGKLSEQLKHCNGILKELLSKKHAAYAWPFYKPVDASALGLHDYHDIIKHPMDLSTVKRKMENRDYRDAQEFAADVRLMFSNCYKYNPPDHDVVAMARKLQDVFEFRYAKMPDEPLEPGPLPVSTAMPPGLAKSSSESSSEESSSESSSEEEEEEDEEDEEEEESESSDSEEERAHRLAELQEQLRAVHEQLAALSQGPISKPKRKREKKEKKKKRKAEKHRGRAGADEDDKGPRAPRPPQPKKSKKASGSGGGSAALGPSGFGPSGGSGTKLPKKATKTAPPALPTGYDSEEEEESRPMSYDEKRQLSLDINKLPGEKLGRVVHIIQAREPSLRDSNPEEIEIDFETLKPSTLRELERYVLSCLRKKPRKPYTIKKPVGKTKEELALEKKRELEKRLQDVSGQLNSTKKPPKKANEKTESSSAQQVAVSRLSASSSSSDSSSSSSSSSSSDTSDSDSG

The target in this assay is T1, FLAG-SREBP2Nterm (SREBP2 N-terminal transcriptionally active domain, amino acids 1-482) (UniProt Q12772).
T1 sequence: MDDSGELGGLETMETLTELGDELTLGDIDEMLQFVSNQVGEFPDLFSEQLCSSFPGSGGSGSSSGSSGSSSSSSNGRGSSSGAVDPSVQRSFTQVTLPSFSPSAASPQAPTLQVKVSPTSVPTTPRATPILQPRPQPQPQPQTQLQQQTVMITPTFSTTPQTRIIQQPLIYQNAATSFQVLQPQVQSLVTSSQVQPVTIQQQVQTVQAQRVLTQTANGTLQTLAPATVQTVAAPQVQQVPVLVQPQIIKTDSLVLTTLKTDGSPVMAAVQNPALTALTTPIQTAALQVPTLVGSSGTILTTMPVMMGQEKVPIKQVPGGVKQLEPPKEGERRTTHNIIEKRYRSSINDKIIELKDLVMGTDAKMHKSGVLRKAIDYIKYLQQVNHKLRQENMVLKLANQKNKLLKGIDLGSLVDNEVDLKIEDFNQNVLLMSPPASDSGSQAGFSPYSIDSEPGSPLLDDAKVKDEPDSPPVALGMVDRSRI
The assay is described as follows: co-IP; lysate (Pierce IP Lysis Buffer) of transfected cells incubated with anti-DYKDDDDK (FLAG) magnetic agarose beads at 4°C overnight, washed 3x with cold PBS, eluted with 0.1 M glycine pH 2.8; immunoblot for endogenous BRD2 or BRD4; cells with or without U18 treatment.

No constants are given. Whether binding was seen depends on the method and setting. In cells and extracts the contact can be indirect. Some binding calls cover weakened binding; strength is not graded here. Tags and fused reporters may be left off the sequences shown.

Turning to “BRD2 (endogenous) (from UniProt P25440 1-801)”, the binding result is given as “binds”.
